Reference: doi:10.1101/2022.05.16.492168
Results are given in words; binding and its absence hold for the method and conditions named. Some entries that bind do so weakly or less than the wild type. Where a sequence is shown, tags or fusion partners need not be part of it.

T1: DBD-RVE8 (RVE8 in yeast 2-/3-hybrid) (Arabidopsis thaliana) (UniProt Q8RWU3)
T1 sequence: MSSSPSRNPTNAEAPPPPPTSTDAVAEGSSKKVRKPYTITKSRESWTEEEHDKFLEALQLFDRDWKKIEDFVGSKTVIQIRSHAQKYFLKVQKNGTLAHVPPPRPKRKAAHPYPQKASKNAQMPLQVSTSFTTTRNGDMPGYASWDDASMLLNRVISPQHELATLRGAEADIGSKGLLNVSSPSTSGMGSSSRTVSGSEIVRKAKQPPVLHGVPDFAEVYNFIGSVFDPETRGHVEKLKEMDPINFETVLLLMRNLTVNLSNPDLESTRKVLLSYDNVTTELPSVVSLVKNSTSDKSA

T2: AD-LNK1 C-term (Arabidopsis thaliana) (UniProt A8MQN2)
T2 sequence: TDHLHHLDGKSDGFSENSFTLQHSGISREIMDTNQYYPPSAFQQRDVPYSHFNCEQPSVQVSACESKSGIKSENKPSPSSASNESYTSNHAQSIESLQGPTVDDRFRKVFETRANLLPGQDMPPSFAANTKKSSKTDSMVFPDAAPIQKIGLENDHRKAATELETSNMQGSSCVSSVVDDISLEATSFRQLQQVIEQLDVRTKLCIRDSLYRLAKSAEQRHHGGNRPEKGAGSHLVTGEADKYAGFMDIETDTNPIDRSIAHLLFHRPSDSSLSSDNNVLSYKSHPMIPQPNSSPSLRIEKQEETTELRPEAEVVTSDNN


Tests used:
[1] = target: T1, DBD-RVE8 (RVE8 in yeast 2-/3-hybrid) (Arabidopsis thaliana); assay: two-hybrid
[2] = target: T2, AD-LNK1 C-term (Arabidopsis thaliana); assay: two-hybrid

binding [1]	binding [2]	Binder
binds	–	AD-LNK1 C-term (domain or fragment, UniProt A8MQN2 297-616) TDHLHHLDGKSDGFSENSFTLQHSGISREIMDTNQYYPPSAFQQRDVPYSHFNCEQPSVQVSACESKSGIKSENKPSPSSASNESYTSNHAQSIESLQGPTVDDRFRKVFETRANLLPGQDMPPSFAANTKKSSKTDSMVFPDAAPIQKIGLENDHRKAATELETSNMQGSSCVSSVVDDISLEATSFRQLQQVIEQLDVRTKLCIRDSLYRLAKSAEQRHHGGNRPEKGAGSHLVTGEADKYAGFMDIETDTNPIDRSIAHLLFHRPSDSSLSSDNNVLSYKSHPMIPQPNSSPSLRIEKQEETTELRPEAEVVTSDNN
–	no binding	COR28 in yeast 2-/3-hybrid (protein, UniProt Q8L983 1-218) MENDCTVNIVSLEKDRDVSEASAESQSESTLSNSLDSGVTAETSRSDADSKLDECTAWTNEKHNSYLDYLESSFVRQLYSLLGGGTQRLSRTRDVQSNSHKSADQFTVLQNGCWQKVNFGKKQSCLETSSEFRFHRNSLRNKPENSNGNYTMGTTVQGDVLCHDETKHSEASGQNFREEEEEEEKGEVSKKREREANNDDSSLKEDQVVPVRMVKPRT
